# Results deposited as PubChem BioAssay AID1159578 (Peter MacCallum Cancer Centre, 2015)
# Assay: 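Knock-downs that alter how fast lymphatic endothelial cells migrate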 (primary screen)
# System: human lymphatic endothelial cells
# Reagent: siRNA pool against human genes, 40 nM
# Time to read-out: 48 h after transfection
# Detection: 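High-content imaging of dye-stained cells in a scratch assay measures filled wound area and nuclei per well; duplicate means given as ratio to mock and robust z-score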
# Reading the numbers: migration robust z-score: higher = faster migration into the scratch; nuclei per well: higher = more cells in the well
# Rule for the call: 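Migration changed when robust z exceeds 2 or falls below -2 and mean nuclei number is at least 3300; otherwise not called changed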
# Meaning of the calls: active = migration changed; inactive = no migration change, or too few cells
# Shown is a random part of about 18,000 reagents tested. About 1,030 of them (5.7%) were called active. 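Inactive calls also include pools with fewer than 3300 nuclei, whose migration was not assessed.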 The raw values are shown without normalisation. A number with no mark means an inactive call. Further read-outs or replicates are left out here. No sequences are given here.
target,PubChem SID,migration robust z-score,migration class with cell-count check,"nuclei per well, duplicate mean"
ZNF341 (GeneID 84905),SID255361566,0.22,migration z between -2 and 2; enough cells,6203
CBLN2 (GeneID 147381),SID255363326,1.56,migration z between -2 and 2; enough cells,5702
STAG3 (GeneID 10734),SID255355312,-0.94,migration z between -2 and 2; enough cells,5848
CT83 (GeneID 203413),SID255364127,-0.21,migration z between -2 and 2; enough cells,5680
OPRK1 (GeneID 4986),SID255351355,0.46,migration z between -2 and 2; enough cells,5357
EXTL3 (GeneID 2137),SID255349587,-0.36,migration z between -2 and 2; enough cells,6318
SCGB2A1 (GeneID 4246),SID255350951,-0.73,migration z between -2 and 2; enough cells,3672
CBARP (GeneID 255057),SID255364480,-0.24,migration z between -2 and 2; enough cells,5570
PHACTR1 (GeneID 221692),SID255364314,-3.21 (active),migration z below -2; enough cells,3880
IGF2BP3 (GeneID 10643),SID255355252,-0.8,migration z between -2 and 2; enough cells,5904
SUSD4 (GeneID 55061),SID255358379,-2.42 (active),migration z below -2; enough cells,4037
WASHC3 (GeneID 51019),SID255357413,1.48,migration z between -2 and 2; enough cells,5529
FPGT (GeneID 8790),SID255353813,0.49,migration z between -2 and 2; enough cells,5974
LYRM1 (GeneID 57149),SID255359301,2.41 (active),migration z above 2; enough cells,6186
ERICH1 (GeneID 157697),SID255363632,0.36,migration z between -2 and 2; enough cells,5946
OR2K2 (GeneID 26248),SID255356732,-0.41,migration z between -2 and 2; enough cells,6190
CEP95 (GeneID 90799),SID255361860,0.22,migration z between -2 and 2; enough cells,4314
VOPP1 (GeneID 81552),SID255360888,1.36,migration z between -2 and 2; enough cells,5265
SPATA1 (GeneID 100505741),SID255359862,-0.3,migration z between -2 and 2; enough cells,5954
NR2E3 (GeneID 10002),SID255354731,-0.56,migration z between -2 and 2; enough cells,6846
ZNF621 (GeneID 285268),SID255364837,0.71,migration z between -2 and 2; enough cells,5832
CFH (GeneID 3075),SID255350173,-0.54,migration z between -2 and 2; enough cells,6354
TTF2 (GeneID 8458),SID255353568,0.18,migration z between -2 and 2; enough cells,5900
CLDN7 (GeneID 1366),SID255349062,-0.53,migration z between -2 and 2; enough cells,6758
MYH14 (GeneID 79784),SID255360462,-1.89,migration z between -2 and 2; enough cells,5602
SERP2 (GeneID 387923),SID255365466,-0.82,migration z between -2 and 2; enough cells,3342
RAC1 (GeneID 5879),SID255352015,0.08,migration z between -2 and 2; enough cells,5007
DAGLA (GeneID 747),SID255348628,-1.3,migration z between -2 and 2; enough cells,5612
SLC25A48 (GeneID 153328),SID255363560,-0.5,migration z between -2 and 2; enough cells,5724
PLPP7 (GeneID 84814),SID255361513,-1.06,migration z between -2 and 2; enough cells,5452
VAMP5 (GeneID 10791),SID255355354,0.97,migration z between -2 and 2; enough cells,5719
F8A3 (GeneID 474384),SID255365997,0.2,migration z between -2 and 2; enough cells,5532
ANAPC16 (GeneID 119504),SID255362469,1.25,migration z between -2 and 2; enough cells,6291
LCP2 (GeneID 3937),SID255350736,1.04,migration z between -2 and 2; enough cells,6037
PHYHD1 (GeneID 254295),SID255364456,-0.52,migration z between -2 and 2; enough cells,6280
UNC93B1 (GeneID 81622),SID255360927,0.26,migration z between -2 and 2; enough cells,5548
ZNRD2 (GeneID 10534),SID255355158,0.28,migration z between -2 and 2; enough cells,5726
DHFR (GeneID 1719),SID255349296,-0.31,migration z between -2 and 2; enough cells,5527
ASB4 (GeneID 51666),SID255357844,0.78,migration z between -2 and 2; enough cells,4708
DKK4 (GeneID 27121),SID255356929,1.86,migration z between -2 and 2; enough cells,3810
MAF (GeneID 4094),SID255350842,0.18,migration z between -2 and 2; enough cells,4458
SOAT1 (GeneID 6646),SID255352563,-0.57,under 3300 nuclei; migration not judged,3180
PREB (GeneID 10113),SID255354819,-0.34,migration z between -2 and 2; enough cells,5518
HMMR (GeneID 3161),SID255350229,1.9,migration z between -2 and 2; enough cells,6310
ADGRF4 (GeneID 221393),SID255364291,1.2,migration z between -2 and 2; enough cells,4542
RGP1 (GeneID 9827),SID255354589,-0.18,migration z between -2 and 2; enough cells,4720
PRG3 (GeneID 10394),SID255355043,2.65 (active),migration z above 2; enough cells,5698
MTRFR (GeneID 91574),SID255361926,-2.37 (active),migration z below -2; enough cells,6424
CNPY4 (GeneID 245812),SID255364372,2.31 (active),migration z above 2; enough cells,6264
GIMAP7 (GeneID 168537),SID255363872,-0.86,migration z between -2 and 2; enough cells,4531
SLC28A2 (GeneID 9153),SID255354080,-0.52,migration z between -2 and 2; enough cells,6390
GRM7 (GeneID 2917),SID255350055,0.62,migration z between -2 and 2; enough cells,6080
ABCC12 (GeneID 94160),SID255362125,0.46,migration z between -2 and 2; enough cells,5663
OSTC (GeneID 58505),SID255359648,0.02,migration z between -2 and 2; enough cells,5518
CCL4 (GeneID 6351),SID255352322,0.58,migration z between -2 and 2; enough cells,5602
FAM53B (GeneID 9679),SID255354465,-0.15,migration z between -2 and 2; enough cells,5232
GMFB (GeneID 2764),SID255349927,0.82,migration z between -2 and 2; enough cells,5799
